This note sets out measurements from patent US10519504B2, “Methods for treatment of oncological disorders using epimetabolic shifters, multidimensional intracellular molecules, or environmental influencers” (Berg LLC, priority 2009, dated 2019).

The series concerns SK-MEL-28 mitochondria. Conditions: 100 μM Q10.

Consider `COC1=C(OC)C(=O)C(C/C=C(\C)CC/C=C(\C)CC/C=C(\C)CC/C=C(\C)CC/C=C(\C)CC/C=C(\C)CC/C=C(\C)CC/C=C(\C)CC/C=C(\C)CCC=C(C)C)=C(C)C1=O` [Q10, Coenzyme Q10], for which the “levels of Q9” value is “low, and near the level of detection”. This compound registered a Cholesterol (48 hr Q10 treated) of 13.86 μg/sample.
